Measurements: patent publication US20120108796A1
Where a chain is given by its changes, count along the chain named. No constants are given. Whether binding was seen depends on the method and setting. Some entries that bind do so weakly or less than the wild type.

Protein sequences, listed by entry. Tags and fused reporters are not part of them. Residues count along the entry.
UniProt P10646, residues 29-304: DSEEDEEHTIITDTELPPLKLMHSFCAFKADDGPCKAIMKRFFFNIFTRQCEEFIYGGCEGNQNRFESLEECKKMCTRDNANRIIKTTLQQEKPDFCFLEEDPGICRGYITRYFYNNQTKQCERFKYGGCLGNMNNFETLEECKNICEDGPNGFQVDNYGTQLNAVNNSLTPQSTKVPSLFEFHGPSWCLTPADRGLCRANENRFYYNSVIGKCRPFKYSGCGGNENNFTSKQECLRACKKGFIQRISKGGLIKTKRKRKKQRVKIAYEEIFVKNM
UniProt O54819, residues 29-289: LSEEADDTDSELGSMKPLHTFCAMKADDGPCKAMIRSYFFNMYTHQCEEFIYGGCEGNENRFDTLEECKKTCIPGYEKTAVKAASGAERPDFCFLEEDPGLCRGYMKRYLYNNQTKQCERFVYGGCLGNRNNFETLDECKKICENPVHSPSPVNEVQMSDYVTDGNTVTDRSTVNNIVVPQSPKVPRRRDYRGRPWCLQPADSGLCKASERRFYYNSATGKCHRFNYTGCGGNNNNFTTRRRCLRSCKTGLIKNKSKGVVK

B1: 2A8-227 (Fab, V domains shown)
VH: QVQLVESGGGLVQPGGSLRLSCAASGFTFRSYGMDWVRQAPGKGLEWVSSIRGSSSSTYYADSVKGRFTISRDNSKNTLYLQMNSLRAEDTAVYYCARLYRYWFDYWGQGTLVTVSS
VL: DIELTQPPSVSVAPGQTARISCSGDNLRNYYAHWYQQKPGQAPVVVIFYDNNRPSGIPERFSGSNSGNTATLTISGTQAEDEADYYCQSWLDGVPWFGGGTKLTVLG
B2: 2A8-g200 (Fab, V domains shown)
VH: B1 VH with Q1E, R30S, S55R, S56G
VL: SYELTQPPSVSVSPGQTARITCSGDNLPKYYAHWYQQKPGQAPVVVIFYDVNRPSGIPERFSGSNSGNTATLTISGTQAMDEADYYCQAWWSSTPVFGGGTKLTVLG
B3: 2A8-g216 (Fab, V domains shown)
VH: B1 VH with S31V, D35S, I51D, S55R, L99V
VL: B2 VL with V51S, A89S, W91L, S93G, V96W
B4: B18.5 (Fab, V domains shown)
VH: QVQLQQSGPGLVKPSQTLSLTCAISGDSVSSDSAAWSWIRQSPGRGLEWLGIIYKRSKWYNQYAVSVKSRITINPDTSKNQFSLQLNSVTPEDTAVYYCARWHSDKHWGFDDWGQGTLVTVSS
VL: DIVMTQSPLSLPVTPGEPASISCRSSQSLVISFGITYLNWYLQKPGQSPQLLIYKGSNRASGVPDRFSGSGSGTDFTLKISRVEAEDVGVYYCQQYDSYPLTFGQGTKVEIKR
B5: B2.0 (Fab, V domains shown)
VH: B4 VH with Q62R
VL: B4 VL with I31F, S32R, D97T
B6: B27.1 (Fab, V domains shown)
VH: B4 VH with Q62R
VL: B4 VL with I31F, F33D, I35T, D97T
B7: B32.5 (Fab, V domains shown)
VH: B4 VH with D32N, Q62R
VL: B4 VL with I31F
B8: B41.2 (Fab, V domains shown)
VH: B4 VH with Q62R
VL: B4 VL with I31F, S32R
B9: B9.7 (Fab, V domains shown)
VH: B4 VH with Q62R
VL: B4 VL with I31F, S32R, F33D
B10: gB9.7 (Fab, V domains shown)
VH: B4 VH with Q1E, G44S, K55Y, Q62R
VL: B4 VL with I31F, S32R, F33D
B11: gB9.7-IgG (antibody, V domains shown)
VH: B4 VH with G44S, K55Y, Q62R
VL: B4 VL with I31F, S32R, F33D

Target: human TFPI (tissue factor pathway inhibitor) (human) (UniProt P10646)
Experiment: SPR (Biacore)

binding, binds:
B1
B2
B3
B4
B5
B6
B7
B8
B9
B10
B11

Target: mouse TFPI (tissue factor pathway inhibitor) (mouse) (UniProt O54819)
Experiment: SPR (Biacore)

binding, binds:
B1
B2
B3
B4
B5
B6
B7
B8
B9
B10
B11
